HELM strings list residues between dots; [ac] is acetyl, [am] amide, other brackets name non-standard units. [ ]: non-standard residue; d: D form. The star is where a group is joined. Tos = Cc1ccc(S(=O)(=O)*)cc1; Boc = CC(C)(C)OC(=O)*; OBn = c1ccc(CO*)cc1; Bn = c1ccc(C*)cc1

Drawing on patent publication US5159061A (Takeda Chemical Industries, Ltd., priority 1986, dated 1992), this text covers step yield and oxidative folding yield for 48 substances.

The first data set is described as follows: general procedure: solution-phase peptide synthesis; HONB/DCC (ONB active esters). The conditions noted are these: coupling step.
Boc-Achc-Cys(MBzl)Phe-Gly-Gly-OH yielded a step yield of 54.9%.

For the substance “Boc-Aib-Cys(MBzl)-Phe-Gly-Gly-Arg(Pme)-Leu-Asp(OBzl)-Arg(Pme)-Ile-Gly-Ala- Gln-Ser-Gly-Leu-Gly-Cys(MBzl)-Asn-Ser(Bzl)-Phe-Arg(Pme)-Tyr(Bzl)-OBzl”, the step yield turned out to be 84.4%.

Substance “Boc-Aib-Cys(MBzl)-Phe-Gly-Gly-Arg(Pme)-Met-Asp(OBzl)-Arg(Pme)-Ile-Gly-Ala- Gln-Ser-Gly-Leu-Gly-Cys(MBzl)-Asn-Ser(Bzl)-Phe-Arg(Pme)-Tyr(Bzl)-OBzl” yielded a step yield of 82.3%. “Boc-Aib-Cys(MBzl)-Phe-Gly-Gly-Arg(Pme)-Nle-Asp(OBzl)-Arg(Pme)-Ile-Gly-Ala- Gln-Ser-Gly-Leu-Gly-Cys(MBzl)-Asn-Ser(Bzl)-Phe-Arg(Pme)-Tyr(Bzl)-OBzl”: the step yield was found to be 82.5%.

The substance Boc-Aib-Cys(MBzl)-Phe-Gly-Gly-OH registered a step yield of 69.8%.

As for “Boc-Ala-Cys(MBzl)-Phe-Gly-Gly-Arg(Pme)-Met-Asp(OBzl)-Arg(Pme)-Ile-Gly-Ala- Gln-Ser-Gly-Leu-Gly-Cys(MBzl)-Asn-Ser(Bzl)-Phe-Arg(Pme)-Tyr(Bzl)-OBzl”, the step yield was 95.3%. The substance Boc-Ala-Cys(MBzl)-Phe-Gly-Gly-OH registered a step yield of 79.0%. For the substance “Boc-Ala-Gin-Ser-Gly-Leu-Gly-Cys(MBzl)-Asn-Ser(Bzl)-Phe-Arg(Pme)-Tyr(Bzl)-OBzl”, the step yield is recorded as 87.1%. With “Boc-Ala-Gln-Ser-Gly-Leu-Gly-Cys(MBzl)-Asn-Ser(Bzl)-Phe-D-Arg(Tos)-Tyr(Bzl)-OBzl”, the step yield worked out at 95.9%. On to “Boc-Arg(Pme)-Ile-Asp(OBzl)-Arg(Pme)-Ile-Gly-Ala-Gln-Ser-Gly-Leu-Gly-Cys(MBzl)-Asn-Ser(Bzl)-Phe-Arg(Pme)-Tyr(Bzl)-OBzl”, for which the step yield turned out to be 84.7%. “Boc-Arg(Pme)-Ile-Asp(OBzl)-Arg(Pme)-Ile-Gly-OH” displayed a step yield of 61.6%. On to “Boc-Arg(Pme)-Leu-Asp(OBzl)-Arg(Pme)-Ile-Gly-OHI”, for which the step yield amounted to 73.2%.

“Boc-Arg(Pme)-Met-Asp(OBzl)-Arg(Pme)-Ile-Gly-Ala-Gln-Ser-Gln-Leu-Gly-Cys(MBzl)-Asn-Ser(Bzl)-Phe-D-Arg(Tos)-Tyr(Bzl)-OBzl” yielded a step yield of 76.9%. Turning to “Boc-Arg(Pme)-Met-Asp(OBzl)-Arg(Pme)-Ile-Gly-Ala-Gln-Ser-Gly-Leu-Gly-Cys(MBzl)-Asn-Ser(Bzl)-Phe-Arg(Pme)-Tyr(Bzl)-OBzl”, the step yield turned out to be 84.0%. Take “Boc-Arg(Pme)-Met-Asp(OBzl)-Arg(Pme)-Ile-Gly-OH”: the step yield stood at 85.2%. Consider “Boc-Arg(Pme)-Nle-Asp(OBzl)-Arg(Pme)-Ile-Gly-OH”, for which the step yield is 73.2%.

As for “Boc-Asn-Ser(Bzl)-Phe-Arg(Pme)-Tyr(Bzl)-Obzl”, the step yield was found to be 96.0%.

Take Boc-Asp-(OBzl)-Arg(Pme)-Ile-Gly-OH.CHA: the step yield was determined as 64.3%. Take “Boc-Cys(MBzl)-Asn-Ser(Bzl)-Phe-Arg(Pme)-Tyr(Bzl)-OBzl”: the step yield is 96.9%.

“Boc-Cys(MBzl)-Asn-Ser(Bzl)-Phe-D-Arg(Tos)-Tyr(Bzl)-OBzl” yielded a step yield of 92.9%. The same measure, in the same setting: the figure for “Boc-Cys(MBzl)-Phe-Ava-Arg(Pme)-Met-Asp(OBzl)-Arg(Pme)-Ile-Gly-Ala-Gln-Ser- Gly-Leu-Cys(MBzl)-Asn-Ser(Bzl)-Phe-Arg(Pme)-Tyr(Bzl)-OBzl” is 97.3%. As for “Boc-Cys(MBzl)-Phe-D-Ala-Gly-Arg(Pme)-Met-Asp(OBzl)-Arg(Pme)-Ile-Gly-Ala-Gln-Ser-Gly-Leu-Gly-Cys(MBzl)-Asn-Ser-Phe-Arg(Pme)-Tyr(Bzl)-OBzl”, the step yield was 83.8%.

Boc-Cys(MBzl)-Phe-D-Ala-Gly-OH gave a step yield of 38.9%.

Substance “Boc-Cys(MBzl)-Phe-Gaba-Arg(Pme)-Met-Asp(OBzl)-Arg(Pme)-Ile-Gly-Ala-Gln-Ser-Gly-Leu-Gly-Cys(MBzl)-Asn-Ser(Bzl)-Phe-Arg(Pme)-Tyr(Bzl)-OBzl” registered a step yield of 78.4%. Turning to “Boc-Cys(MBzl)-Phe-Gly-Arg(Pme)-Met-Asp(OBzl)-Arg(Pme)-Ile-Gly-Ala-Gln-Ser- Gly-Leu-Gly-Cys(MBzl)-Asn-Ser(Bzl)-Phe-Arg(Pme)-Tyr(Bzl)-OBzl”, the step yield was 78.0%. “Boc-Cys(MBzl)-Phe-Gly-Arg(Pme)-Met-Asp(OBzl)-Arg(Pme)-Ile-Gly-OH” gave a step yield of 77.7%. Take “Boc-Cys(MBzl)-Phe-Gly-Gly-Arg(Pme)-Met-Asp(OBzl)-Arg(Pme)-Ile-Gly-Ala-Gln- Ser-Gly-Leu-Gly-Cys(MBzl)-Asn-Ser(Bzl)-Phe-D-Arg(Tos)-Tyr(Bzl)-OBzl”: the step yield is given as 78.1%.

Boc-Cys(MBzl)-Phe-Gly-Gly-OH: the step yield turned out to be 69.1%. As to “Boc-Cys(MBzl)-Phe-βAla-Arg(Pme)-Met-Asp(OBzl)-Arg(PME)-Ile-Gly-Ala-Gln-Ser-Gly-Leu-Gly-Cys(MBzl)-Asn-Ser(Bzl)-Phe-Arg(Pme)-Tyr(Bzl)-OBzl”, the step yield stood at 94.0%. On to “Boc-D-Ala-Cys(MBzl)-Phe-Gly-Gly-Arg(Pme)-Met-Asp(OBzl)-Arg(Pme)-Ile-Gly-Ala-Gln-Ser-Gly-Leu-Gly-Cys(MBzl)-Asn-Ser(Bzl)-Phe-Arg(Pme)-Tyr(Bzl)-OBzl”, for which the step yield is recorded as 92.5%. Substance Boc-DAla-Cys(MBzl)-Phe-Gly-Gly-OH came in with a step yield of 76.0%. “Boc-Gly-Arg(Pme)-Met-Asp(OBzl)-Arg(Pme)-Ile-Gly-OH”: the step yield is given as 94.8%. For the substance Boc-Ile-Asp(OBzl)-Arg(Pme)-Ile-Gly-OH, the step yield is given as 82.0%. Take “Boc-Ile-Cys(MBzl)-Phe-Gly-Gly-Arg(Pme)-Met-Asp(OBzl)-Arg(Pme)-Ile-Gly-Ala- Gln-Ser-Gly-Leu-Gly-Cys(MBzl)-Asn-Ser(Bzl)-Phe-Arg(Pme)-Tyr(Bzl)-OBzl”: the step yield came to 95.2%.

For Boc-Ile-Cys(MBzl)-Phe-Gly-Gly-OH, the step yield worked out at 83.0%. On the same count and under the same terms, then Boc-Leu-asp(OBzl)-Arg(Pme)-Ile-Gly-OH, with 87.8%; and Boc-NS(Bn)F[dR](Tos)Y(Bn)-OBn, with 86.6%; and Boc-Nle-Asp(OBzl)-Arg(Pme)-Ile-Gly-OH, with 97.0%. Substance “Boc-Phe-Gly-Arg(Pme)-Met-Asp(OBzl)-Arg(Pme)-Ile-Gly-OH” registered a step yield of 76.3%.

With Boc-S(Bn)GLG-OBn, the step yield is recorded as 78.3%. Consider Boc-Ser(Bzl)-Phe-Arg(Pme)-Tyr(Bzl)-OBzl, for which the step yield is recorded as 94.4%. As for “Boc-Val-Cys(MBzl)-Phe-Gly-Gly-Arg(Pme)-Met-Asp(OBzl)-Arg(Pme)-Ile-Gly-Ala- Gln-Ser-Gly-Leu-Gly-Cys(MBzl)-Asn-Ser(Bzl)-Phe-Arg(Pme)-Tyr(Bzl)-OBzl”, the step yield was found to be 9.2%. With Boc-Val-Cys(MBzl)-Phe-Gly-Gly-OH, the step yield is reported as 92.7%.

The data set is the same for the next values; noted with them: late stage modification step.
Boc-AQSGLG-OH gave a step yield of 94.3%.

Still in this data set, the particulars now being: oxidative folding step.
In turn, “PEPTIDE1{[Aib].C.F.G.G.R.M.D.R.I.G.A.Q.S.G.L.G.C.N.S.F.R.Y}$PEPTIDE1,PEPTIDE1,2:R3-18:R3$$$V2.0” showed an oxidative folding yield of 12%. Still for that read-out and setting: then [Aib^6, Leu^12 ]α-hANP[6-28], with 22%; and [Aib^6, Nle^12 ]-α-hANP[6-28], with 14.4%; and [βAla^9, des Gly^10 ]-α-hANP[7-28], with 17%.
